Assay [1] addresses T1, 5-HT2A (Homo sapiens (Human), UniProt P28223). Kind of assay: Radioligand binding assay, [^3H]5-HT competition, 5-HT2A. As to conditions: read-out: 5-HT2A serotonin binding Ki value; [^3H]5-HT radioligand, membranes of HEK293 cells expressing recombinant 5-HT2A; Ki from IC50 by Cheng-Prusoff.
Another assay addresses 5-HT2C (Homo sapiens (Human), UniProt P28335). In words: HTRF IP-One antagonist assay, 5-HT2C.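 Note: clonal HEK293 line with low 5-HT2C density (10–20 fmol/mg), HTRF detection of IP-One, 10-point dose curves from 10 µM in 5-fold steps, triplicate points.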 As to conditions: read-out: 5-HT2C IC50; HEK293 cells stably expressing receptor, inositol phosphate accumulation, 80 nM 5-HT in Assay Buffer. (In general: In TR-FRET formats the signal depends on donor and acceptor labels being close together.)
Assay [2] deals with T1, 5-HT2A. In words: HTRF IP-One antagonist assay, 5-HT2A.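 Note: clonal line with low receptor density (about 50–70 fmol/mg), 10-point dose-response from 10 µM in 5-fold steps, HTRF detection after 1 hr, triplicate points.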 As to conditions: read-out: 5-HT2A IC50; HEK293 cells stably expressing receptor, inositol phosphate accumulation, 80 nM 5-HT in Assay Buffer.

The chains behind the UniProt entries cited, without tags or fusion partners. Residues count along the entry.
UniProt P28223, whole entry: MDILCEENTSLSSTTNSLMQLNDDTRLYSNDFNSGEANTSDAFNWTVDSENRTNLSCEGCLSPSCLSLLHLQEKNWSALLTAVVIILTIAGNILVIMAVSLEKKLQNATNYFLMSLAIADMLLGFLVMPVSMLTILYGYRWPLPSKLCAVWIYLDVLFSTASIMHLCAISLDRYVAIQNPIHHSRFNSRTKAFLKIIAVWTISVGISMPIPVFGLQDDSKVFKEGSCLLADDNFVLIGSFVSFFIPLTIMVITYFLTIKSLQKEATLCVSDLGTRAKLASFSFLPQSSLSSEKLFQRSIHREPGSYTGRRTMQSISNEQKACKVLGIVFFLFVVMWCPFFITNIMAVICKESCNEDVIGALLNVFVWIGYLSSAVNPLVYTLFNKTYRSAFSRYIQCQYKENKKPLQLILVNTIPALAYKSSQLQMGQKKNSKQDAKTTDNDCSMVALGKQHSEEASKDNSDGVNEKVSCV
UniProt P28335, 33-458 limits assumed: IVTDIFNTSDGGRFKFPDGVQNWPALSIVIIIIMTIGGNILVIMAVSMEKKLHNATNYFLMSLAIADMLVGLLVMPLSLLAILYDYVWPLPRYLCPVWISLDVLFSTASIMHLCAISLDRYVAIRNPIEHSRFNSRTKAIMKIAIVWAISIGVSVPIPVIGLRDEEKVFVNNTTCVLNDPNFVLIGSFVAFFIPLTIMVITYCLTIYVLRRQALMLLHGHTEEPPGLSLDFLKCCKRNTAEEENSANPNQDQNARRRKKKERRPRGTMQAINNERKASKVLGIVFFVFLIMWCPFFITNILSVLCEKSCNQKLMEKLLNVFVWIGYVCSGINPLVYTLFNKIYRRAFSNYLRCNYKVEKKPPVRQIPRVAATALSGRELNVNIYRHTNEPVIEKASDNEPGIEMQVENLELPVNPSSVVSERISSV

The structures given here were assigned with low confidence; some may be wrong.

As a reminder, the Ki is the dissociation constant of the complex between target and ligand, obtained from inhibition or displacement. As usually defined, the IC50 is the midpoint of a concentration-inhibition curve.

Turning to `Cc1ncnc(C)c1-c1cc(NC(=O)c2ncsc2C)ccc1OCCN1CCCC1`, the Ki on 5-HT2A [1] was 0.00248 µM. Further, the IC50 stood at 100 µM on 5-HT2C and 0.0161 µM at 5-HT2A [2].

(Values after patent US20250270172A1.)
